Record: PubChem BioAssay AID1259425 (University of Nebraska Medical Center, 2018)

Test: 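Seek colon cancer weak points whose silencing resembles KSR1 loss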 (primary screen)
System: HCT116 human colon cancer cells
Reagent: siRNA pool against human genes, 50 nM siRNA
Detection: 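After 50 nM siRNA pool, branched-DNA assay measures six marker transcripts per well, minus blank, normalised to the geometric mean of two housekeeping transcripts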
Reading the numbers: BNIP3L mRNA: higher = more BNIP3L transcript after knockdown; NDRG1 mRNA: higher = more NDRG1 transcript after knockdown; BNIP3 mRNA: higher = more BNIP3 transcript after knockdown
This is one part, drawn at random, of about 14,000 reagents. Reagents against one gene are numbered here. Not all columns of the deposit are shown. Not given: the time to read-out.

no.	target gene	pool no.	BNIP3L mRNA, set 1	NDRG1 mRNA, set 1	BNIP3 mRNA, set 1
1	HYAL3	1	0.091	0.185	0.246
2	SPATA6	1	0.202	0.261	0.313
3	GFOD1	1	0.172	0.271	0.215
4	GFOD1	2	0.125	0.139	0.24
5	ZNF324	1	0.123	0.627	0.358
6	SLC22A5	1	0.0931	0.29	0.252
7	TNKS	1	0.098	0.15	0.332
8	TBC1D29P	1	0.144	0.705	0.552
9	PSEN2	1	0.129	0.326	0.432
10	RRP8	1	0.138	0.127	0.348
11	EIF2S1	1	0.158	1.27	0.341
12	PLCG1	1	0.0566	0.0669	0.256
13	BKGD	1	0.134	0.17	0.298
14	TMEM40	1	0.0939	0.323	0.405
15	DMRT1	1	0.0525	0.13	0.339
16	CST6	1	0.135	0.204	0.255
17	DBNDD1	1	0.128	0.285	0.437
18	SPC25	1	0.0923	0.233	0.379
19	C8A	1	0.14	0.171	0.427
20	MIOX	1	0.0777	0.132	0.343
21	C1QL1	1	0.096	0.0531	0.298
22	RXYLT1	1	0.109	0.162	0.354
23	PAPOLG	1	0.14	0.277	0.265
24	PCM1	1	0.0551	0.225	0.297
25	IFI35	1	0.192	0.0451	0.502
26	BACH2	1	0.178	0.149	0.385
27	DPM2	1	0.113	0.0812	0.378
28	HERC2	1	0.074	0.122	0.286
29	IFT57	1	0.0482	0.576	0.309
30	PRKG2	1	0.0805	0.0734	0.377
31	AK4	1	0.119	0.286	0.468
32	WDR77	1	0.0663	0.161	0.309
33	HLCS	1	0.148	0.318	0.245
34	SCO2	1	0.137	0.151	0.42
35	PCDHB2	1	0.14	0.122	0.302
36	SHLD2	1	0.172	0.13	0.384
37	RIC3	1	0.0937	0.322	0.355
38	PRKN	1	0.119	0.747	0.214
39	MAL	1	0.131	0.407	0.207
40	LMTK2	1	0.0942	0.0463	0.423
41	NR2C2AP	1	0.0407	0.412	0.264
42	ST18	1	0.0991	0.122	0.188
43	MIS12	1	0.196	0.152	0.323
44	VPS52	1	0.0997	0.106	0.286
45	PAX6	1	0.136	0.399	0.33
46	UGGT1	1	0.107	0.509	0.317
47	CHST11	1	0.126	0.444	0.323
48	BORCS6	1	0.361	0.458	0.765
49	FAM220A	1	0.161	0.111	0.265
50	ANXA9	1	0.117	0.127	0.272

Already shown: entries from further up.
no.	target gene	pool no.	BNIP3L mRNA, set 1	NDRG1 mRNA, set 1	BNIP3 mRNA, set 1
30	PRKG2	1	0.0805	0.0734	0.377
31	AK4	1	0.119	0.286	0.468
32	WDR77	1	0.0663	0.161	0.309
33	HLCS	1	0.148	0.318	0.245
34	SCO2	1	0.137	0.151	0.42
